# Source: the supplement of paper PMC8728848
# The list shows a part of the results.
# B1: Thrombomodulin Lectin (Mus musculus) (protein)
# chain: LSALAKLQPTGSQCVEHECFALFQGPATFLDASQACQRLQGHLMTVRSSVAADVISLLLSQSSMDLGPWIGLQLPQGCDDPVHLGPLRGFQWVTGDNHTSYSRWARPNDQTAPLCGPLCVTVSTATEAAPGEPAWEEKPCETETQGFLCEFYFTASCRVDPIPVREDTKEEEGAGEPPVSPTPGSPTGPPSARPVLDEPRVPITQNPCPPLKECPPCAAPDLEGGPSVFIFPPKIKDVLMISLSPMVTCVVVDVSEDDPDVQISWFVNNVEVHTAQTQTHREDYNSTLRVVSALPIQHQDWMSGKAFACAVNNRALPSPIEKTISKPRGPVRAPQVYVLPPPAEEMTKKEFSLTCMITGFLPAEIAVDWTSNGRTEQNYKNTATVLDSDGSYFMYSKLRVQKSTWERGSLFACSVVHEGLHNHLTTKTISRSLGK
# Legend:
# Assay in all cases: glycan array binding signal (z-score within array); higher = stronger binding
# Conditions in all cases: glycan notation: IUPAC condensed, linker removed
# [1] = target: Gal(b1-4)GlcNAc(b1-3)Gal(b1-4)GlcNAc(b1-3)Gal(b1-4)GlcNAc(b1-3)Gal(b1-4)GlcNAc(b1-2)Man(a1-3)[Gal(b1-4)GlcNAc(b1-3)Gal(b1-4)GlcNAc(b1-3)Gal(b1-4)GlcNAc(b1-3)Gal(b1-4)GlcNAc(b1-2)Man(a1-6)]Man(b1-4)GlcNAc(b1-4)[Fuc(a1-6)]GlcNAc
# Summary of the method: (§1)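 From the Consortium for Functional Glycomics database, 3228 arrays were curated, keeping only those whose protein sequence was available. Binding is given as a within-array Z-score averaged across arrays sharing a protein sequence and across linkers. Negative Z-scores can be read as non-binding.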
# [2] = target: Gal(b1-4)GlcNAc(b1-3)Gal(b1-4)GlcNAc(b1-3)Gal(b1-4)GlcNAc(b1-3)Gal(b1-4)GlcNAc(b1-2)[Gal(b1-4)GlcNAc(b1-3)Gal(b1-4)GlcNAc(b1-3)Gal(b1-4)GlcNAc(b1-3)Gal(b1-4)GlcNAc(b1-6)]Man(a1-6)[Gal(b1-4)GlcNAc(b1-3)Gal(b1-4)GlcNAc(b1-3)Gal(b1-4)GlcNAc(b1-3)Gal(b1-4)GlcNAc(b1-2)Man(a1-3)]Man(b1-4)GlcNAc(b1-4)[Fuc(a1-6)]GlcNAc
# Summary of the method: as §1
# [3] = target: Gal(b1-4)GlcNAc(b1-3)Gal(b1-4)GlcNAc(b1-3)Gal(b1-4)GlcNAc(b1-3)Gal(b1-4)GlcNAc(b1-3)Gal(b1-4)GlcNAc(b1-2)Man(a1-3)[Gal(b1-4)GlcNAc(b1-3)Gal(b1-4)GlcNAc(b1-3)Gal(b1-4)GlcNAc(b1-3)Gal(b1-4)GlcNAc(b1-3)Gal(b1-4)GlcNAc(b1-2)Man(a1-6)]Man(b1-4)GlcNAc(b1-4)GlcNAc
# Summary of the method: as §1
# [4] = target: Gal(b1-4)GlcNAc(b1-3)Gal(b1-4)GlcNAc(b1-3)Gal(b1-4)GlcNAc(b1-3)Gal(b1-4)GlcNAc(b1-3)Gal(b1-4)GlcNAc(b1-2)Man(a1-3)[Gal(b1-4)GlcNAc(b1-3)Gal(b1-4)GlcNAc(b1-3)Gal(b1-4)GlcNAc(b1-3)Gal(b1-4)GlcNAc(b1-3)Gal(b1-4)GlcNAc(b1-2)Man(a1-6)]Man(b1-4)GlcNAc(b1-4)[Fuc(a1-6)]GlcNAc
# Summary of the method: as §1
# [5] = target: Gal(b1-4)GlcNAc(b1-3)Gal(b1-4)GlcNAc(b1-3)Gal(b1-4)GlcNAc(b1-3)Gal(b1-4)GlcNAc(b1-3)Gal(b1-4)GlcNAc(b1-2)[Gal(b1-4)GlcNAc(b1-3)Gal(b1-4)GlcNAc(b1-3)Gal(b1-4)GlcNAc(b1-3)Gal(b1-4)GlcNAc(b1-3)Gal(b1-4)GlcNAc(b1-6)]Man(a1-6)[Gal(b1-4)GlcNAc(b1-3)Gal(b1-4)GlcNAc(b1-3)Gal(b1-4)GlcNAc(b1-3)Gal(b1-4)GlcNAc(b1-3)Gal(b1-4)GlcNAc(b1-2)Man(a1-3)]Man(b1-4)GlcNAc(b1-4)[Fuc(a1-6)]GlcNAc
# Summary of the method: as §1
# [6] = target: Gal(b1-4)GlcNAc(b1-3)Gal(b1-4)GlcNAc(b1-3)Gal(b1-4)GlcNAc(b1-3)Gal(b1-4)GlcNAc(b1-3)Gal(b1-4)GlcNAc(b1-3)Gal(b1-4)GlcNAc(b1-2)Man(a1-3)[Gal(b1-4)GlcNAc(b1-3)Gal(b1-4)GlcNAc(b1-3)Gal(b1-4)GlcNAc(b1-3)Gal(b1-4)GlcNAc(b1-3)Gal(b1-4)GlcNAc(b1-3)Gal(b1-4)GlcNAc(b1-2)Man(a1-6)]Man(b1-4)GlcNAc(b1-4)GlcNAc
# Summary of the method: as §1
# [7] = target: Gal(b1-4)GlcNAc(b1-3)Gal(b1-4)GlcNAc(b1-3)GalNAc
# Summary of the method: as §1
# [8] = target: Gal(b1-4)GlcNAc(b1-3)Gal(b1-4)GlcNAc(b1-3)[Gal(b1-4)GlcNAc(b1-3)Gal(b1-4)GlcNAc(b1-6)]GalNAc
# Summary of the method: as §1
# [9] = target: Gal(b1-4)GlcNAc(b1-3)Gal(b1-4)GlcNAc(b1-6)[Gal(b1-3)]GalNAc
# Summary of the method: as §1
# [10] = target: Gal(b1-4)GlcNAc(b1-3)Gal(b1-4)[Fuc(a1-3)]GlcNAc(b1-3)Gal(b1-4)[Fuc(a1-3)]GlcNAc
# Summary of the method: as §1
# [11] = target: Gal(b1-4)GlcNAc(b1-3)GalNAc
# Summary of the method: as §1
# [12] = target: Gal(b1-4)GlcNAc(b1-3)[Fuc(a1-3)GlcNAc(b1-6)]Gal(b1-4)Glc
# Summary of the method: as §1
# [13] = target: Gal(b1-4)GlcNAc(b1-3)[Gal(b1-4)GlcNAc(b1-6)]Gal(b1-4)GlcNAc
# Summary of the method: as §1
# [14] = target: Gal(b1-4)GlcNAc(b1-3)[GlcNAc(b1-6)]Gal(b1-4)GlcNAc
# Summary of the method: as §1
# [15] = target: Gal(b1-4)GlcNAc(b1-6)Gal(b1-4)GlcNAc
# Summary of the method: as §1
# [16] = target: Gal(b1-4)GlcNAc(b1-6)GalNAc
# Summary of the method: as §1
# [17] = target: Gal(b1-4)GlcNAc(b1-6)[Gal(b1-3)]GalNAc
# Summary of the method: as §1
# [18] = target: Gal(b1-4)GlcNAc(b1-6)[Gal(b1-4)GlcNAc(b1-3)]GalNAc
# Summary of the method: as §1
# Gal(b1-4)GlcNAc6P = target: Gal(b1-4)GlcNAc6P
# Summary of the method: as §1
# Gal(b1-6)Gal = target: Gal(b1-6)Gal
# Summary of the method: as §1
# Gal3S(b1-3)GalNAc = target: Gal3S(b1-3)GalNAc
# Summary of the method: as §1
# Gal3S(b1-3)GlcNAc = target: Gal3S(b1-3)GlcNAc
# Summary of the method: as §1
# [19] = target: Gal3S(b1-3)[Fuc(a1-4)]GlcNAc
# Summary of the method: as §1
# Gal3S(b1-4)Glc = target: Gal3S(b1-4)Glc
# Summary of the method: as §1
# Gal3S(b1-4)Glc6S = target: Gal3S(b1-4)Glc6S
# Summary of the method: as §1
# Gal3S(b1-4)GlcNAc = target: Gal3S(b1-4)GlcNAc
# Summary of the method: as §1
# [20] = target: Gal3S(b1-4)[Fuc(a1-3)]Glc6S
# Summary of the method: as §1
# [21] = target: Gal3S(b1-4)[Fuc(a1-3)]GlcNAc
# Summary of the method: as §1
# [22] = target: Gal3S(b1-4)[Fuc(a1-3)]GlcNAc6S
# Summary of the method: as §1
# Gal3S4S(b1-4)GlcNAc = target: Gal3S4S(b1-4)GlcNAc
# Summary of the method: as §1
# Gal3S6S(b1-4)GlcNAc = target: Gal3S6S(b1-4)GlcNAc
# Summary of the method: as §1
# Gal3S6S(b1-4)GlcNAc6S = target: Gal3S6S(b1-4)GlcNAc6S
# Summary of the method: as §1
# Gal4S(b1-4)GlcNAc = target: Gal4S(b1-4)GlcNAc
# Summary of the method: as §1
# Gal4S6S(b1-4)GlcNAc = target: Gal4S6S(b1-4)GlcNAc
# Summary of the method: as §1
# Gal6P(b1-4)GlcNAc = target: Gal6P(b1-4)GlcNAc
# Summary of the method: as §1
# Gal6S(b1-3)GlcNAc = target: Gal6S(b1-3)GlcNAc
# Summary of the method: as §1
# Gal6S(b1-3)GlcNAc6S = target: Gal6S(b1-3)GlcNAc6S
# Summary of the method: as §1
# Gal6S(b1-4)Glc = target: Gal6S(b1-4)Glc
# Summary of the method: as §1
binder,measurement,setting,value
B1,glycan array binding signal (z-score),[1],0.55
same,glycan array binding signal (z-score),[2],1.43
same,glycan array binding signal (z-score),[3],0.506
same,glycan array binding signal (z-score),[4],1.89
same,glycan array binding signal (z-score),[5],0.509
same,glycan array binding signal (z-score),[6],0.318
same,glycan array binding signal (z-score),[7],0.556
same,glycan array binding signal (z-score),[8],0.778
same,glycan array binding signal (z-score),[9],0.282
same,glycan array binding signal (z-score),[10],-0.67
same,glycan array binding signal (z-score),[11],-0.804
same,glycan array binding signal (z-score),[12],-0.306
same,glycan array binding signal (z-score),[13],-0.435
same,glycan array binding signal (z-score),[14],-0.552
same,glycan array binding signal (z-score),[15],0.375
same,glycan array binding signal (z-score),[16],1.21
same,glycan array binding signal (z-score),[17],0.589
same,glycan array binding signal (z-score),[18],-0.371
same,glycan array binding signal (z-score),Gal(b1-4)GlcNAc6P,2.7
same,glycan array binding signal (z-score),Gal(b1-6)Gal,-0.072
same,glycan array binding signal (z-score),Gal3S(b1-3)GalNAc,-0.616
same,glycan array binding signal (z-score),Gal3S(b1-3)GlcNAc,-0.312
same,glycan array binding signal (z-score),[19],-0.592
same,glycan array binding signal (z-score),Gal3S(b1-4)Glc,-0.449
same,glycan array binding signal (z-score),Gal3S(b1-4)Glc6S,-0.107
same,glycan array binding signal (z-score),Gal3S(b1-4)GlcNAc,-0.17
same,glycan array binding signal (z-score),[20],0.039
same,glycan array binding signal (z-score),[21],0.2
same,glycan array binding signal (z-score),[22],-0.939
same,glycan array binding signal (z-score),Gal3S4S(b1-4)GlcNAc,-1.16
same,glycan array binding signal (z-score),Gal3S6S(b1-4)GlcNAc,0.988
same,glycan array binding signal (z-score),Gal3S6S(b1-4)GlcNAc6S,-0.274
same,glycan array binding signal (z-score),Gal4S(b1-4)GlcNAc,-0.315
same,glycan array binding signal (z-score),Gal4S6S(b1-4)GlcNAc,-0.555
same,glycan array binding signal (z-score),Gal6P(b1-4)GlcNAc,-0.268
same,glycan array binding signal (z-score),Gal6S(b1-3)GlcNAc,-1.19
same,glycan array binding signal (z-score),Gal6S(b1-3)GlcNAc6S,-1.18
same,glycan array binding signal (z-score),Gal6S(b1-4)Glc,-1.09

# A different layout for some results above:
binder	measurement	setting	value
B1	glycan array binding signal (z-score)	[19]	-0.592
same	glycan array binding signal (z-score)	Gal3S4S(b1-4)GlcNAc	-1.16
